# Source: the supplement of paper PMC5949888
# Most values lie at the floor of the assay. Slopes are relative: functional sequences can read slightly below zero.
# Test system: Saccharomyces cerevisiae PS128 hsf1 delta, HSF1(1-493) fusion
# Assay: growth estimate (transactivation domain function in HSF1 fusion, heat-shock survival) (a.u. (slope of normalised read count over time)); higher = stronger growth at 37°C, i.e. more transactivation activity
# Conditions: library: random library
row,Substance,growth estimate
1,SKGSAWLIREALRTRPLPVG,< -0.25
2,SKGWSTVPIRTCRTRKLGLA,< -0.25
3,SKKVPSRPQAEVWLETD,< -0.25
4,SKL,< -0.25
5,SKLLKAPLIVLLVR,< -0.25
6,SKNLVPL,< -0.25
7,SKPGMSICGGAMFYSDE,< -0.25
8,SKPQ,< -0.25
9,SKPRAGYCLLQQDRSPPFGA,< -0.25
10,SKQ,< -0.25
11,SKQGSESARTFSYVV,< -0.25
12,SKRTCL,< -0.25
13,SKSPCIFNADRQNPFPPRGT,< -0.25
14,SKSRCVIIGPTSLLMQTRAL,< -0.25
15,SKTQGQEDQSKYLLWNSTHR,< -0.25
16,SKYPWPGW,< -0.25
17,SLAALYSHRASVLWLHVQV,< -0.25
18,SLAINHDRAPQET,< -0.25
19,SLARITNNRLCGHNVPHTRR,< -0.25
20,SLCFSIRVYVYLMCQIGELS,< -0.25
21,SLCLDCTVRVSASRRKR,< -0.25
22,SLDEFICNAAA,< -0.25
23,SLDNRLSPVNL,< -0.25
24,SLDQEPGTCSAS,< -0.25
25,SLE,-0.246

row,Substance,growth estimate
1,SLEGNAASSTVSSGSRGSTW,< -0.25
2,SLFEQFPCIKGNTRQKISWQ,< -0.25
3,SLFQYCRSDMLGWLRPSSLR,< -0.25
4,SLGATEHNTRRRSSSAKVY,< -0.25
5,SLGKYEARH,< -0.25
6,SLGPANSYPRVRG,< -0.25
7,SLGTGLALSGLVYRGPVIRL,< -0.25
8,SLHVQSLT,< -0.25
9,SLHWHRESVNTCAGSKILDP,< -0.25
10,SLIESTSIQLRVACSGTVRA,< -0.25
11,SLIGPLRS,< -0.25
12,SLIRQSRSCLYAYLRAEGRA,< -0.25
13,SLIT,< -0.25
14,SLIVLHRIMRNSSASKLSIT,< -0.25
15,SLKVSVIYTYSDDFNASLRN,< -0.25
16,SLLCC,< -0.25
17,SLLCLRAPFTTGLSSKELRD,-0.201
18,SLLEV,< -0.25
19,SLLFSCDIADIA,< -0.25
20,SLLGVLSMYHRRRSRHIEAR,< -0.25
21,SLLHTAHNCQNGIRMNLGPA,< -0.25
22,SLLIWFPSVWGDYSDLGPPD,< -0.25
23,SLLKWLVVGF,< -0.25
24,SLLMRVTTIPAQLAQRTRSF,< -0.25
25,SLMVTDRRLLCMEITHRSAL,< -0.25

row,Substance,growth estimate
1,SLNPGLEENWGAVNVRHV,< -0.25
2,SLPFHSRDPFKDTDWGRASI,< -0.25
3,SLPMAGNRRDIRANRSGRWS,-0.229
4,SLPMSPARPKVA,< -0.25
5,SLQGKVFVEISPRRTCHAWS,< -0.25
6,SLQSI,-0.182
7,SLRLCGLRDFMPHRS,< -0.25
8,SLRLVVGVRRARAEWVG,< -0.25
9,SLRPR,< -0.25
10,SLRSSILLRGSHKNIKLL,< -0.25
11,SLRTALRLPNG,< -0.25
12,SLRYRAGINTFTRLLPTILI,< -0.25
13,SLS,< -0.25
14,SLSA,-0.23
15,SLSDPAVGVVRLRAQCSIYH,< -0.25
16,SLSLDGAEGCMRC,< -0.25
17,SLSLPSVRRARGSVPRHVED,< -0.25
18,SLSQPRVWARRHV,< -0.25
19,SLSSMSFGEGEFRP,< -0.25
20,SLSYDSIVISDLML,< -0.25
21,SLTCLKSTLQPLDSAHQFGS,< -0.25
22,SLTERAPG,< -0.25
23,SLTGPFVSIYPMIGPSDANS,< -0.25
24,SLTGVCPEPPDFFS,< -0.25
25,SLTLAGVAI,< -0.25

# Laid out differently: entries from further up.
row	Substance	growth estimate
2	SKGWSTVPIRTCRTRKLGLA	< -0.25
16	SKYPWPGW	< -0.25
6	SLGPANSYPRVRG	< -0.25
9	SLHWHRESVNTCAGSKILDP	< -0.25
8	SLRLVVGVRRARAEWVG	< -0.25
11	SLRTALRLPNG	< -0.25

# The list continues.

row,Substance,growth estimate
1,SLTPNGLVRSA,< -0.25
2,SLTRETSPCFWGNGVTVSLV,< -0.25
3,SLVASRNCSCHNPQPNPCRD,< -0.25
4,SLVFGPWW,< -0.25
5,SLVI,< -0.25
6,SLVSFCCSCSRSRVLGNLGT,< -0.25
7,SLVVS,< -0.25
8,SLWARLVGISDRWH,< -0.25
9,SLWTRSLVLGVREVRELSNK,< -0.25
10,SLYANSESSPFNPVLTQGCK,< -0.25
11,SLYQLIVGGLGSTDKLYGSY,< -0.25
12,SMAKLQGAGASAVKVVLEEY,< -0.25
13,SMAVRLISTAP,< -0.25
14,SMFEFRESVSLEV,< -0.25
15,SMGDPGMEPMLGPGAHFDHK,< -0.25
16,SMGMIGFDHTPRQY,< -0.25
17,SMGPYSGCCKVWVHKLIL,< -0.25
18,SMGQRNF,< -0.25
19,SMGTSR,< -0.25
20,SMLDVGRPRAKR,< -0.25
21,SMMRRLYRHLVRFFLSGADG,< -0.25
22,SMPWIGE,< -0.25
23,SMRAVVTT,< -0.25
24,SMRSGRKDGN,< -0.25
